Data as given in PubChem BioAssay AID504808 (Drosophila RNAi Screening Center, 2011).
Purpose: 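Chromatin factors that keep E2F targets switched off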 (primary screen). Cell system: Drosophila S2 cells. Knock-down reagent: long dsRNA against Drosophila genes. Measured: 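Dual luciferase plate measurements; E2F-specific signal taken as firefly over Renilla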. Direction: E2F firefly: higher = more E2F reporter activity; Renilla normaliser: higher = more normaliser reporter signal. Active means: 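a knock-down counted as active when the firefly/Renilla E2F signal rose above 50%, a threshold chosen arbitrarily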.
The screen tested about 21,000 reagents; shown is an unselected part of those with a known target gene and a result. In the full data, 18 (0.084%) were called active. 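Raw counts without plate normalisation, one of two replicates; the ratio scores behind the calls were not deposited.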 Entries without a mark were called inactive. The numbers tell different reagents against one gene apart. Reagent sequences are not shown. The record does not give: the amount of reagent, the time to read-out.

After knock-down of CG5928, the record shows E2F firefly, rep 1 = 1.11e5; Renilla normaliser, rep 1 = 5856. Knock-down of Ilk came out at: E2F firefly, rep 1 = 48412; Renilla normaliser, rep 1 = 3466. For Oxp, the values are E2F firefly, rep 1 = 1.41e5; Renilla normaliser, rep 1 = 5602. Oatp74D #1 showed E2F firefly, rep 1 = 1.29e5; Renilla normaliser, rep 1 = 3779. Oatp74D #2 scored E2F firefly, rep 1 = 61958; Renilla normaliser, rep 1 = 3163. Cipc #1 scored E2F firefly, rep 1 = 1756; Renilla normaliser, rep 1 = 868.

Depletion of Cipc #2 gave: E2F firefly, rep 1 = 98080; Renilla normaliser, rep 1 = 6940. Depletion of CG8708 resulted in: E2F firefly, rep 1 = 3100; Renilla normaliser, rep 1 = 205. Knock-down of CG6357 came out at: E2F firefly, rep 1 = 182; Renilla normaliser, rep 1 = 43. Ubc10 gave E2F firefly, rep 1 = 1.82e5; Renilla normaliser, rep 1 = 5490. After knock-down of fdl, the record shows E2F firefly, rep 1 = 93343; Renilla normaliser, rep 1 = 4175. CG17486 gave E2F firefly, rep 1 = 72219; Renilla normaliser, rep 1 = 3302.

Against HP1D3csd the deposit lists E2F firefly, rep 1 = 1.53e5; Renilla normaliser, rep 1 = 5743. With knock-down of Trap1, the screen gave E2F firefly, rep 1 = 85637; Renilla normaliser, rep 1 = 3330. With knock-down of eIF5B #1, the screen gave E2F firefly, rep 1 = 99852; Renilla normaliser, rep 1 = 4169. Depletion of eIF5B #2 came out at: E2F firefly, rep 1 = 1.14e5; Renilla normaliser, rep 1 = 4155. With knock-down of ProtB the results were E2F firefly, rep 1 = 95070; Renilla normaliser, rep 1 = 4729. After knock-down of CG12024, the record shows E2F firefly, rep 1 = 70626; Renilla normaliser, rep 1 = 3426.

Depletion of Mics1 gave: E2F firefly, rep 1 = 1.45e5; Renilla normaliser, rep 1 = 6197. Silencing of Cyp4ac1 resulted in: E2F firefly, rep 1 = 93865; Renilla normaliser, rep 1 = 3742. Depletion of mey resulted in: E2F firefly, rep 1 = 2018; Renilla normaliser, rep 1 = 1240. For Osi13 the deposit lists E2F firefly, rep 1 = 1.30e5; Renilla normaliser, rep 1 = 5985. After knock-down of CG8245 the results were E2F firefly, rep 1 = 1.15e5; Renilla normaliser, rep 1 = 4783. Knock-down of CG6495 resulted in: E2F firefly, rep 1 = 74894; Renilla normaliser, rep 1 = 3376.

For Rab26 #1, the values are E2F firefly, rep 1 = 72777; Renilla normaliser, rep 1 = 3237. Against Rab26 #2 the deposit lists E2F firefly, rep 1 = 1.27e5; Renilla normaliser, rep 1 = 6723. For Rab26 #3 the deposit lists E2F firefly, rep 1 = 1.41e5; Renilla normaliser, rep 1 = 6608. After knock-down of vnd #1, the screen gave E2F firefly, rep 1 = 83253; Renilla normaliser, rep 1 = 2109. Knock-down of vnd #2 gave: E2F firefly, rep 1 = 55733; Renilla normaliser, rep 1 = 3258. With knock-down of CG32533 #1 the results were E2F firefly, rep 1 = 1.65e5; Renilla normaliser, rep 1 = 5461.

CG32533 #2 showed E2F firefly, rep 1 = 1.24e5; Renilla normaliser, rep 1 = 6800. Against dbo the deposit lists E2F firefly, rep 1 = 1.45e5; Renilla normaliser, rep 1 = 6861. Depletion of CG15034 came out at: E2F firefly, rep 1 = 1.09e5; Renilla normaliser, rep 1 = 5123. After knock-down of CG7872 the results were E2F firefly, rep 1 = 7720; Renilla normaliser, rep 1 = 744. With knock-down of CG10919, the record shows E2F firefly, rep 1 = 1.38e5; Renilla normaliser, rep 1 = 6641. After knock-down of CG5281 the results were E2F firefly, rep 1 = 1.40e5; Renilla normaliser, rep 1 = 6183.

Copied from the list:
For “E2F firefly, rep 1”, eIF5B #2 shows 1.14e5
Under “E2F firefly, rep 1”, CG7872 reads 7720
For “Renilla normaliser, rep 1”, eIF5B #1 is entered as 4169
Under “E2F firefly, rep 1”, Cipc #2 has 98080
dbo, E2F firefly, rep 1 → 1.45e5
Value for Ilk in “E2F firefly, rep 1”: 48412
